According to article PMC10713652:
Results are given in words; binding and its absence hold for the method and conditions named. Binding seen in cells or lysates may run through a third protein. Some results given as binding are weak or reduced against the parent protein; the word gives no strength.

Sequences of proteins named here, by UniProt entry; tags and fusion partners are left off. Residues count along the entry.
UniProt Q8NI17, 20-732: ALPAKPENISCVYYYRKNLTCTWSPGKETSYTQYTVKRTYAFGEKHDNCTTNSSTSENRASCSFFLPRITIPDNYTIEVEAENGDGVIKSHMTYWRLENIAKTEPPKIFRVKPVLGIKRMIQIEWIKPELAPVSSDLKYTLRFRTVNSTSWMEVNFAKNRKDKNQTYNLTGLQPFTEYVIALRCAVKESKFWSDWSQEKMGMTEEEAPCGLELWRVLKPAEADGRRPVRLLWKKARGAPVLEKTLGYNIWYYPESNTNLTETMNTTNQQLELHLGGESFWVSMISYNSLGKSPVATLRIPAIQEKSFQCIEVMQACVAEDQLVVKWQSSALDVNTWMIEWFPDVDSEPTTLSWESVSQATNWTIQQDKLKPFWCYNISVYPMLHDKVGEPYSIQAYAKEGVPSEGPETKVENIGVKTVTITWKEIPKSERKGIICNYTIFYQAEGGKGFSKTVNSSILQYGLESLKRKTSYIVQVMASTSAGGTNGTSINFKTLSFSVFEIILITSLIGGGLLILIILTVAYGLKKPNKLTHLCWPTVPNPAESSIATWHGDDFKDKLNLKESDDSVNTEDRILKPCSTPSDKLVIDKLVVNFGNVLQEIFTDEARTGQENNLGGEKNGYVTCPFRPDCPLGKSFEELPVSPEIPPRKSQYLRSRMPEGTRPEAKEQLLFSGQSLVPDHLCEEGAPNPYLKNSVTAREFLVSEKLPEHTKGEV
UniProt P20309, whole entry: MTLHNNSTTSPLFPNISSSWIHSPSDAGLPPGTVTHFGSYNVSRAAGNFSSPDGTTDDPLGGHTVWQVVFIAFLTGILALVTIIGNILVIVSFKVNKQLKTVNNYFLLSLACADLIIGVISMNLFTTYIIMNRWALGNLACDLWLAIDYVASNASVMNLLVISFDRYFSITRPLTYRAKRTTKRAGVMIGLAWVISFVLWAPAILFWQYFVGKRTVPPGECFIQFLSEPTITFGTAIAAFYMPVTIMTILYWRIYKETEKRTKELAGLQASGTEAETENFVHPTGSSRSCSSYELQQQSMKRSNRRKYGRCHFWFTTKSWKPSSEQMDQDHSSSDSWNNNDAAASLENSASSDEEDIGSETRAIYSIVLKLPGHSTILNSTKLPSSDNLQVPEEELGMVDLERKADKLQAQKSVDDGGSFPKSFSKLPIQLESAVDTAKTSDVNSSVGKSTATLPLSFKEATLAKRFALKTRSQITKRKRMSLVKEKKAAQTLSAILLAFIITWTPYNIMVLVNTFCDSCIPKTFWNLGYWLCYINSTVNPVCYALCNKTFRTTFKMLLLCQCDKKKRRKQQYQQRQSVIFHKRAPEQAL

Biological target: C-terminal FLAG-tagged IL-31RA (interleukin 31 receptor alpha), overexpressed from an Origene plasmid (UniProt Q8NI17)
Experiment: proximity ligation; in situ Duolink PLA in HEK293T cells transfected for 48 h with plasmids for IL-31RA and CHRM3 or empty control plasmids; methanol-fixed; primary antibodies against IL-31RA and CHRM3; plasma membrane counterstained with cholera toxin-Alexa Fluor 488

Substance: CHRM3 (muscarinic acetylcholine receptor 3), overexpressed from an Origene plasmid (from UniProt P20309 1-590)
- binding: binds
